Results from patent US8835447B2, “Method for treating androgen receptor positive cancers” (priority 2009, dated 2014).
At least one structure is not confirmed: it was looked up by name or label, or the drawing left a doubt.

Legend:
Type in all cases: cell-based, human
C4-2 and CWR22R cells = assay: Colony formation assay, androgen-independent C4-2 and CWR22R cells; conditions: 10 μM, 7 days
Description: (§1) Cell Colony Assay: Cells were plated in 24-well plates at a density allowing 6-7 days of exponential growth before confluency. Medium and compound was replaced every 48 hours to minimize the effect of potential compound instability. After 7 days of incubation in the presence of compound, cells were fixed and stained with methylene blue, followed by extraction of the stain with 1% SDS and spectrophotometry at 650 nm. Each assay was run in triplicate and the difference between control and compound-treated wells was determined using Student's t-test. This Example provides a description of the effect of the selected compounds on the growth of PCa cells. To test the toxicity of the identified AR inhibitors towards cells of different origins, we performed colony formation assays using a single dose of each compound (10 μM) on several PCa (LNCaP, C4-2, CW[…] and DU145) and two non-PCa (HT1080 and HeLa) cell lines (FIG. 2A). […] These compounds were not weaker inhibitors of AR transcriptional activity in CW[…] or C4-2 cells than compounds that inhibited growth of the cells.

LNCaP cells = assay: Colony formation assay, LNCaP cells; conditions: 10 μM, 7 days
Description: as §1

[1] = tested on: AR-dependent transcription (ARE-Luc reporter) in CWR22R cells; assay: AR-dependent luciferase reporter (pARE-Luc) assay in CWR22R-ARE-Luc cells; conditions: comparison between compounds

SMILES	growth of androgen-independent C4-2 and CWR22R cells (C4-2 and CWR22R cells)	growth of androgen-sensitive LNCaP cells (LNCaP cells)	inhibition of AR-dependent transcription judged by EC50 and maximal inhibition of ARE-Luc reporter activity and PSA secretion [1]
CC(O)(CS(=O)(=O)c1ccc(F)cc1)C(=O)Nc1ccc(C#N)c(C(F)(F)F)c1 (stereo not shown) [bicalutamide, reference compound]	did not suppress growth	suppressed growth	–
c1ccc(CNc2ccc(-c3nc4ccccc4o3)cc2)cc1 [c55]	–	–	comparable inhibitors of AR-dependent transcription
Cc1ccc(OCC(=O)Nc2ccc(Cl)c([N+](=O)[O-])c2)c(C)c1 [c61]	–	–	comparable inhibitors of AR-dependent transcription
